Experiment [1] addresses streptavidin-fused Jun protein (Streptomyces avidinii; mouse) (UniProt P05627). Nature of the experiment: protein microarray: STA-Jun on a biotin plate, labelled Fos in solution, fluorescence scan.
The target is the same in experiment [2]. Nature of the experiment: protein microarray: STA-Jun on a biotin-coated slide, labelled Fos in solution, fluorescence scan.

Amino acid sequences for entries named in this document (tags omitted). A change or cut given only in a name is not applied to a line headed by its entry. Chains listed by the source or under a name are the forms on record and can include a tag or linker. Residues count along the entry.
UniProt P05627, residues 216-318: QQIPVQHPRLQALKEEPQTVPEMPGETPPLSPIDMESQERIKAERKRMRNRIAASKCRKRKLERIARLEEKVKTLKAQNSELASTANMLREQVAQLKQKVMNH
Fos modified with TAMRA-dC-puromycin (Modifying agent 19) (P01101, form named): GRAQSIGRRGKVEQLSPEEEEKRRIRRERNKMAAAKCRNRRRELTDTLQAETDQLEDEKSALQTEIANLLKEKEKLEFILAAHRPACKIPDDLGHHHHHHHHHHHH

No constants are given. Whether binding was seen depends on the method and setting. Some results given as binding are weak or reduced against the parent protein; the word gives no strength.

As to “Fos modified with TAMRA-dC-puromycin (Modifying agent 19) (from UniProt P01101 118-211)”, the binding result in experiment [1] and in experiment [2] was “binds” each time.

The values are drawn from US20050010028A1 (KEIO UNIVERSITY, published 2005).
